Test results taken from the supplement of paper PMC12819154, “High-throughput peptide-centric local stability assay extends protein–ligand identification to membrane proteins, tissues and bacteria” (Nature Structural & Molecular Biology, 2025).
The other results are listed elsewhere or left out. Most values lie at the level of the controls, where differences are scatter.

Chains of the proteins cited; added tags and fusions are not shown. Lines headed by an entry give the natural chain unless they say otherwise; changes in a name come on top.
UniProt Q9D902: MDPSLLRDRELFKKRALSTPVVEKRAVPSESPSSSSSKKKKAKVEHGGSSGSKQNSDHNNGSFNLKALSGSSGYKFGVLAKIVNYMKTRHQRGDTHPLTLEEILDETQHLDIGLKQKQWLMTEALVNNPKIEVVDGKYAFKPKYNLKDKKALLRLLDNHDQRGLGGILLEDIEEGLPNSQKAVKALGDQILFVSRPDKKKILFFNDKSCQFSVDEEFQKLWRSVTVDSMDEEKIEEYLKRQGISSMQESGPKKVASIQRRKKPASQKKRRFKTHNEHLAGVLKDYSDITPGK
UniProt Q9DBA6: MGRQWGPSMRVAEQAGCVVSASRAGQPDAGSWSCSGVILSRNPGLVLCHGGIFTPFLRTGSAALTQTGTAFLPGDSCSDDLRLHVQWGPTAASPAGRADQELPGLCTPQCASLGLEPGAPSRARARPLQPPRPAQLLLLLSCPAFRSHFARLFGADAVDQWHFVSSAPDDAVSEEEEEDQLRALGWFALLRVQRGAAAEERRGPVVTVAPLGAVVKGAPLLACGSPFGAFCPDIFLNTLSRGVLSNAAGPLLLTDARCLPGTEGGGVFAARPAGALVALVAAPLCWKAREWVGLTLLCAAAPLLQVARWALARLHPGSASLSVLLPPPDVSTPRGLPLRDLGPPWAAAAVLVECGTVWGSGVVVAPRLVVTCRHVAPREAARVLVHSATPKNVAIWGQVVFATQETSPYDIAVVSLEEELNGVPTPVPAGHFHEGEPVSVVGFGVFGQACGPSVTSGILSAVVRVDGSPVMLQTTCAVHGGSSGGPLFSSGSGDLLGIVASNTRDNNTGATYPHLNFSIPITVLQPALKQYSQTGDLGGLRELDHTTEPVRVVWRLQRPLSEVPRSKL
UniProt Q9DAI2: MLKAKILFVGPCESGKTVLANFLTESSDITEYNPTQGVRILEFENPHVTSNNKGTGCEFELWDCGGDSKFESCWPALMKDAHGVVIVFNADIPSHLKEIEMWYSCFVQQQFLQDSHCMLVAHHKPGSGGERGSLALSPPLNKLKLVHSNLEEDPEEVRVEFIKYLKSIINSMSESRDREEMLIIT
UniProt Q9D711: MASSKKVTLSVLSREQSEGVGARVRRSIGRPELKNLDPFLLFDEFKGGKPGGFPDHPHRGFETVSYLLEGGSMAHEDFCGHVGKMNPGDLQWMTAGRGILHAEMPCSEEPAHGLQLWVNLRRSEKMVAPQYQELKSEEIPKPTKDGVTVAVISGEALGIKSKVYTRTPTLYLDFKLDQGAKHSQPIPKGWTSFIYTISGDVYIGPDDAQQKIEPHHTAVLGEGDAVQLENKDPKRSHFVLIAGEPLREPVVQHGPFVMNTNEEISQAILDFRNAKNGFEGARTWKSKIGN
UniProt Q9DBE0: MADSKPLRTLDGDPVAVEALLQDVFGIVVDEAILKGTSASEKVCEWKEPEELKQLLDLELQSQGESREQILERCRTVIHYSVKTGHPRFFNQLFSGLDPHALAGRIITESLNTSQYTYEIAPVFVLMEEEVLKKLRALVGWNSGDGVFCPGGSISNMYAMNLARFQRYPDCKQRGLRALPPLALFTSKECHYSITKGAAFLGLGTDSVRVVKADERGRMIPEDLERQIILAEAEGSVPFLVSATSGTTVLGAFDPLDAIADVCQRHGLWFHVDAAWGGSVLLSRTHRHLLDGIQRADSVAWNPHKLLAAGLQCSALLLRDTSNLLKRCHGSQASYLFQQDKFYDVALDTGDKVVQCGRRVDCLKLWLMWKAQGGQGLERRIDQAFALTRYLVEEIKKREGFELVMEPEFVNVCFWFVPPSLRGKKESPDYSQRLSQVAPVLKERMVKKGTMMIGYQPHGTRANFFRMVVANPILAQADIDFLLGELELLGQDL
UniProt Q9DBT9: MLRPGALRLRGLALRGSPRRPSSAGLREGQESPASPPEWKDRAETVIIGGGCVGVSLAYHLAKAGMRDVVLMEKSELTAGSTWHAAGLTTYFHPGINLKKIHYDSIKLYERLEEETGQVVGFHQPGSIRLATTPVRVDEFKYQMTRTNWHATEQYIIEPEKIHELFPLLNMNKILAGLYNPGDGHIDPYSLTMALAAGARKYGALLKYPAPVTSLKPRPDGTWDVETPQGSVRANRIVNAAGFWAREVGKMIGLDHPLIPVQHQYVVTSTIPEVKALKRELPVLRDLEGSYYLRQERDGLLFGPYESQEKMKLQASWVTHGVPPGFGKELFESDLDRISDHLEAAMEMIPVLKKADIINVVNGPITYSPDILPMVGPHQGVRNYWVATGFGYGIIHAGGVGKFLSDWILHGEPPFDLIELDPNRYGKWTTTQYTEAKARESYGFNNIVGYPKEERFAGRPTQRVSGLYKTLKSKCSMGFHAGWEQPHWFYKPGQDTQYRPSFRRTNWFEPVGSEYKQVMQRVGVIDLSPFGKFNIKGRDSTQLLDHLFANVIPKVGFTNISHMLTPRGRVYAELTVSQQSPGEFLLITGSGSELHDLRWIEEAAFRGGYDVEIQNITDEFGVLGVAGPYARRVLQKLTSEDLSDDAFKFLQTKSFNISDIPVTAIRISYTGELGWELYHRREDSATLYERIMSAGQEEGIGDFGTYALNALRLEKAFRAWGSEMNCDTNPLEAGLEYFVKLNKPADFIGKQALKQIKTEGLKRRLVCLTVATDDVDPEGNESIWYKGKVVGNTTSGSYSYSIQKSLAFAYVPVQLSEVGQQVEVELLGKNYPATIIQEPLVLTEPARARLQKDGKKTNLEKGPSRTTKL
UniProt Q9DBK0: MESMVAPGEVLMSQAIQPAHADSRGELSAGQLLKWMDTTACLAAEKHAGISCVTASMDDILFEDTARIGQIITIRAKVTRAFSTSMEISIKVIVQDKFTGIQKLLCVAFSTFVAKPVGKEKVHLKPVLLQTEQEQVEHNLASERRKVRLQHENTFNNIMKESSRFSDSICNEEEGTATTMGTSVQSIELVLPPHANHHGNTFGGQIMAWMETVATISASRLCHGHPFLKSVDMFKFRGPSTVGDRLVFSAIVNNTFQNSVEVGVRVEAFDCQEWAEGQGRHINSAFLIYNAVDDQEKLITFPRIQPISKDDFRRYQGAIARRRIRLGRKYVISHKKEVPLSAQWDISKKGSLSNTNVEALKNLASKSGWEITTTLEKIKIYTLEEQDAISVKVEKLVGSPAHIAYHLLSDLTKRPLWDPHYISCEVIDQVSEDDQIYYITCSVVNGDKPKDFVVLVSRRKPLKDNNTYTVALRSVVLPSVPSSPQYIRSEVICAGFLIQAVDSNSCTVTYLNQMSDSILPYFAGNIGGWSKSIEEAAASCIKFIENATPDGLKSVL
UniProt Q9DB98: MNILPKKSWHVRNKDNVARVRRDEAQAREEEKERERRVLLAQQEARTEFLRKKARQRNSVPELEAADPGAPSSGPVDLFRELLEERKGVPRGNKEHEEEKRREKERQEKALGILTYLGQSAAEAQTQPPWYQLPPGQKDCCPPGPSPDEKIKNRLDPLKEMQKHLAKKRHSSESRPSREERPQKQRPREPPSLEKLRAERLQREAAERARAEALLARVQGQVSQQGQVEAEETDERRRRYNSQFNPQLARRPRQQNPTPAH
UniProt Q9D4F2: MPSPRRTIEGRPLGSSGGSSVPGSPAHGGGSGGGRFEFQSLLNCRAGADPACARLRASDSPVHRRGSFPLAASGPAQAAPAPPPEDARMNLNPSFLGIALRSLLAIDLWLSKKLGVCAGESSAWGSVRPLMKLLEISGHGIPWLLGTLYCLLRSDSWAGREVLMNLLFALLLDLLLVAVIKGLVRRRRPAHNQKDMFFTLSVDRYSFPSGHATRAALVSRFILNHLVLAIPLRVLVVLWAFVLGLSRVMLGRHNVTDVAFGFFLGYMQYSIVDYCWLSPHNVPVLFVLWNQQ
UniProt Q9D0N8: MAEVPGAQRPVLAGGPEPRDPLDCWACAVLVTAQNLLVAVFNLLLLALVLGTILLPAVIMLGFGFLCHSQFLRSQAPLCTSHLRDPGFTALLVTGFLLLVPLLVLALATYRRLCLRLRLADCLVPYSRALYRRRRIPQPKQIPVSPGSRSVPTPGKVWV
UniProt Q9CZN8: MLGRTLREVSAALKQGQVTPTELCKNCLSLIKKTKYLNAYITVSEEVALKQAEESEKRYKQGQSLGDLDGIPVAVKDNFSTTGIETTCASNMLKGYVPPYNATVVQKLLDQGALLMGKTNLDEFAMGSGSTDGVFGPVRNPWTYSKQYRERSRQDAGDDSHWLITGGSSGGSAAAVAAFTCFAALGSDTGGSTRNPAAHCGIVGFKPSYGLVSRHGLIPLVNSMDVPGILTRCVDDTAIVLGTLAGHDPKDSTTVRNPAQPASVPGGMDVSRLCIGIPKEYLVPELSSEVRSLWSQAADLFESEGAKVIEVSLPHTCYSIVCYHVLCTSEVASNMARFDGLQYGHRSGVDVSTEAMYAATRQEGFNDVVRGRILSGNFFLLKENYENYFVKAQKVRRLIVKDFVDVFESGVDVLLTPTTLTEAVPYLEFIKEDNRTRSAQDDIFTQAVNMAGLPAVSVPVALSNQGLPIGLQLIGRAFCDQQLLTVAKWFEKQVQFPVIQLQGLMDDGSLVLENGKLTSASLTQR
UniProt Q9DAU1: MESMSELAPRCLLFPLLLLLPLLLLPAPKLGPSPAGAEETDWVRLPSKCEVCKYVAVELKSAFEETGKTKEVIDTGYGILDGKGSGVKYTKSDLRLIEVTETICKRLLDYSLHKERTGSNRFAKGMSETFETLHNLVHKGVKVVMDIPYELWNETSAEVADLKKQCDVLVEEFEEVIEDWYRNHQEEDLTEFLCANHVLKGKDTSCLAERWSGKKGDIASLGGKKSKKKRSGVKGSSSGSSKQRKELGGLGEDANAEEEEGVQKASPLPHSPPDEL
UniProt Q9DBW0: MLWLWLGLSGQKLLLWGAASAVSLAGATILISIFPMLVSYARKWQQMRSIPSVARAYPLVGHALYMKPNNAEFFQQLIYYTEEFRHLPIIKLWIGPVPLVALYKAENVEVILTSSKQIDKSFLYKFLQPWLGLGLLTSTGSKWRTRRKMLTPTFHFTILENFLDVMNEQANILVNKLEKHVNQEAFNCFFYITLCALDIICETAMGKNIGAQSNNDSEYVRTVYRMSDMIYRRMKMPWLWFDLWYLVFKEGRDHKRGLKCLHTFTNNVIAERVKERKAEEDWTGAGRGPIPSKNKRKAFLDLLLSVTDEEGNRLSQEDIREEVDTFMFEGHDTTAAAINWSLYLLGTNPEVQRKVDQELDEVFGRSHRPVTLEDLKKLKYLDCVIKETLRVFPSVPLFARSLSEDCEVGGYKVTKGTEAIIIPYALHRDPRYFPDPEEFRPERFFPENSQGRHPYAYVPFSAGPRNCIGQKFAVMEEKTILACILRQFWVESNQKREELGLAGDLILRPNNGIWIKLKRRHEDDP
UniProt Q9D880: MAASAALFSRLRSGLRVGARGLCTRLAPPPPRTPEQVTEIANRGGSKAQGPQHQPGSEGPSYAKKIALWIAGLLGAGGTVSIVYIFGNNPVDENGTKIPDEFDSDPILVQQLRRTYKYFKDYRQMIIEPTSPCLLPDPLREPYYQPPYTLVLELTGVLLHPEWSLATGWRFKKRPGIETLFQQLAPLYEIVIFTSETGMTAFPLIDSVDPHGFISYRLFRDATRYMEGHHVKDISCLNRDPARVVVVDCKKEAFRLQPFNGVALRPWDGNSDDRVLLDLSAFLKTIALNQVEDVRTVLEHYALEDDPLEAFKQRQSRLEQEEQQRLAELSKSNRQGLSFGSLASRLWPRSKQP
UniProt Q9D6S7: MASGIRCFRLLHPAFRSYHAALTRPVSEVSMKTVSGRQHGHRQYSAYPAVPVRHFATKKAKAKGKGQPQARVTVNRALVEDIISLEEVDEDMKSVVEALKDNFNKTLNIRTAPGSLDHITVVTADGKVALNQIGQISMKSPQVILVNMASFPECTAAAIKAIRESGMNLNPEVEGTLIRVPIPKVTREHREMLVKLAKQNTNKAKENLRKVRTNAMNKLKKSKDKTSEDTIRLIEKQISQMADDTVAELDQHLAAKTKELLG
UniProt Q9D0M3: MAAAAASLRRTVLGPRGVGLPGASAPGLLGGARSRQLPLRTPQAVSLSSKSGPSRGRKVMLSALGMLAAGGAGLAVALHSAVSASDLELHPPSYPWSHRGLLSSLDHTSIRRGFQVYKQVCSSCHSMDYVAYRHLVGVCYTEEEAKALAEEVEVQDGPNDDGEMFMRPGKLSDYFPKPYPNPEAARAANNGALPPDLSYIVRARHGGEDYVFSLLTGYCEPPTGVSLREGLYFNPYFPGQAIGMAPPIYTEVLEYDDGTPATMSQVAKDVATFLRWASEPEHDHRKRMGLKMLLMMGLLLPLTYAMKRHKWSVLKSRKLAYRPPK
UniProt Q9DAW9: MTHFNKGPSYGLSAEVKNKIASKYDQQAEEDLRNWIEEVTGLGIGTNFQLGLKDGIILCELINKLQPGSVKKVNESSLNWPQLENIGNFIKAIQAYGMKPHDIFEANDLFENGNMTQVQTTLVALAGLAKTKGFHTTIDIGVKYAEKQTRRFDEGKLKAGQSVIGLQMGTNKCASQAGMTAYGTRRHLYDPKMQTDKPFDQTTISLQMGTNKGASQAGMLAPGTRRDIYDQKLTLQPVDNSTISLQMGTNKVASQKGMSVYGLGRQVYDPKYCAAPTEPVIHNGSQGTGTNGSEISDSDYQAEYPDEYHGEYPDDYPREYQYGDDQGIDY

Each target was assayed with CN[C@@H]1C[C@H]2O[C@@](C)([C@@H]1OC)n1c3ccccc3c3c4c(c5c6ccccc6n2c5c31)C(=O)NC4 [staurosporine] (assay: log2 fold change of pooled soluble protein (PISA), ligand vs vehicle (log2 ratio); higher = more thermally stabilized). Conditions: ligand concentration: 20 uM; assay format: PISA pool 52.9/55.5/58.6 C.

| Target | log2 fold change of pooled soluble protein |
| --- | --- |
| UniProt Q9D902 | -0.215 |
| UniProt Q9DBA6 | -0.129 |
| UniProt Q9DAI2 | 0.0409 |
| UniProt Q9D8Y1 | -0.0165 |
| UniProt Q9D0M1 | -0.191 |
| UniProt Q9D0F3 | -0.066 |
| UniProt Q9CXZ1 | -0.0266 |
| UniProt Q9D0R2 | 0.0131 |
| UniProt Q9D711 | -0.0324 |
| UniProt Q9D9K3 | -0.0128 |
| UniProt Q9D6J5 | -0.0501 |
| UniProt Q9DBE0 | 0.0659 |
| UniProt Q9DBT9 | 0.0501 |
| UniProt Q9D832 | 0.232 |
| UniProt Q9DBK0 | -0.0721 |
| UniProt Q9DB98 | 0.0216 |
| UniProt Q9DBH5 | -0.0395 |
| UniProt Q9CZU6 | -0.0354 |
| UniProt Q9D4F2 | -0.102 |

| Target | log2 fold change of pooled soluble protein |
| --- | --- |
| UniProt Q9CY58 | 0.0723 |
| UniProt Q9CXT8 | 0.23 |
| UniProt Q9D0N8 | -0.0191 |
| UniProt Q9D379 | -0.0524 |
| UniProt Q9CXX9 | 0.0201 |
| UniProt Q9DB43 | -0.0244 |
| UniProt Q9DBT5 | -0.0199 |
| UniProt Q9CZN8 | 0.369 |
| UniProt Q9DAU1 | 0.0223 |
| UniProt Q9CY16 | 0.17 |
| UniProt Q9DBW0 | 0.0309 |
| UniProt Q9D8Y0 | 0.0108 |
| UniProt Q9D880 | -0.0493 |
| UniProt Q9D0P0 | -0.0939 |
| UniProt Q9D0E1 | 0.109 |
| UniProt Q9D6S7 | -0.0343 |
| UniProt Q9D0M3 | -0.224 |
| UniProt Q9DAW9 | -0.0347 |

Eleven entries from above, with bars between the fields.
Target | log2 fold change of pooled soluble protein
UniProt Q9CY58 | 0.0723
UniProt Q9CXT8 | 0.23
UniProt Q9CXX9 | 0.0201
UniProt Q9DB43 | -0.0244
UniProt Q9DBT5 | -0.0199
UniProt Q9DAU1 | 0.0223
UniProt Q9CY16 | 0.17
UniProt Q9D8Y0 | 0.0108
UniProt Q9D0P0 | -0.0939
UniProt Q9D6S7 | -0.0343
UniProt Q9D0M3 | -0.224
